PubChem BioAssay AID1347423 (Functional Genomics Laboratory (NCATS/FGL), 2020)
About 210 (0.4%) of roughly 52,000 sequences were called active.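 The calls were made as follows: active = gene whose silencing raises cell survival under the drug, median off-target-corrected z-score across its silencing RNAs 2 or more; inactive = the rest.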 Some of the results follow.

Assay: Resistance to Poly (ADP-Ribose) Polymerase inhibitor: Gene Identification via Genome-wide siRNA Screen
Settings: mouse BRCA2 R2336H ES cells, olaparib, CellTiter-Glo viability; hits give high values
In short: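 Genome-wide siRNA screen (3 siRNAs/gene, 20 nM) in mouse ES cells carrying hypomorphic BRCA2 R2336H; olaparib 500 nM added 48 h post-transfection, CellTiter-Glo viability 72 h later. Normalized to plate-median negative control; MAD z-scores, gene median, seed-adjusted.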

Sequence | z-score
GGAGAAAGAGAAAAUCGCUTT against Csnk1g2 | inactive: 0.0148
GGUAUUAAGUUCCUGUAAUTT against 4631427C17Rik | inactive: 0.102
CGAUACAGGACCGAAGGAGTT against 2900090M10Rik | inactive: 0.326
GGCCAGGAAAGCAUUAAGATT against Trim2 | inactive: 0.408
GGAACAUCCUUUGAAAACATT against Ptprk | inactive: -0.599
GGACAGGUACAGCAUCAACTT against Siat9 | inactive: 1.14
ACAAAGAAGCGAUUUCUAUTT against Wtip | inactive: -0.669
GGACUGUGCAGUUAUUGUCTT against Psma6 | inactive: -3.39
GGCCUUGAUAUCAACAAGATT against Pkia | inactive: 1.05
GCGAAAAGACCAAUAAUGGTT against Ebf1 | inactive: 0.479
GCAAGAACCUGGUGCGAAATT against Lrrc4b | inactive: -0.297
UCACCAUCUUGAAGAUUCGTT against Olfr486 | inactive: 1.16
GCAAGAGUCUGCUACGACATT against Opn1sw | inactive: 0.0796
GGAAGAAAAACAGCAGAUCTT against Dncic1 | inactive: -1.14
CCAGAACUGUGAGUGGAUUTT against Nrp2 | inactive: -0.457
CUUUCCUUCACUGAUGUCATT against Olfr666 | inactive: -2.37
GCUGAAAACACACCUAGCATT against 4930429M06Rik | inactive: 3.56
GCCAAGAUCCCACCAGUUATT against C230078M08Rik | inactive: -0.799
GGAAGAAUAUUGGCCCUGUTT against 2810004A10Rik | inactive: -1.2
GGACCUGAACGAUCUCGUUTT against MGC25972 | inactive: 0.132
GCUGACCGGCAUUUACCAUTT against Mcm2 | inactive: 0.0737
GCGAGAGCUUCUUAACUGUTT against Ssh2 | inactive: 0.487

Sequence | z-score
GCACUACAUUGUGGCUGUCTT against Itpr3 | inactive: -0.713
GGGCAUAUGACUGAAACACTT against V1ra2 | inactive: -2.18
GGACAGCAAGACCAACCUATT against Elavl2 | inactive: -1.42
GGACAAAGAAAACAGCUGUTT against A630024B12Rik | inactive: 0.945
GCCGAUCAAGACAACUUCATT against 1700094C09Rik | inactive: 0.143
GUCACAAGCUGUCCAACAATT against Ndufa7 | inactive: -1.29
GCUAAGAAGAGGAUUCCAATT against Spag1 | inactive: -1.47
GCAAUACUUAUCCAUUGCGTT against Msx3 | inactive: -0.165
GGAGUGAUUAACCUAACUCTT against Crip3 | active: -0.183
CGUAUAAUAACUCCUUAUCTT against Hoxa1 | inactive: 0.0437
GGCAAUCCACCAAGUACAATT against Ptpn8 | inactive: -0.909
GGAGCUACUGUACCUUGCUTT against 5830426I05Rik | inactive: -2.62
GCUUACAAUGAAUGAUGAUTT against Psme4 | inactive: 0.345
GGCAUUUGCCAAGAAAAAUTT against BC013667 | inactive: 0.0672
GGGUAUGUCGGAGACCUUUTT against 1600025D17Rik | inactive: -0.612
GCAUGUUGCAUCACAGGGATT against Zfp106 | inactive: 0.12
GCGGUGCUUAGAGCAACUGTT against Mxd3 | inactive: 0.527
GGUCUAUUUGACCUCUUAATT against Bcl2l13 | inactive: -1.84
GGAAAUCCGCUUCACCAUCTT against Efnb1 | inactive: 2.04
CGACAAACCCAAGAUCACGTT against Viaat | inactive: 1.57
CGACCUCAAAGAUGUGACGTT against 5-Sep | inactive: -0.94
GGAAAAGCAUAAAGAAAAGTT against Ralbp1 | inactive: 0.488

Sequence | z-score
GAAAAAAUGCCAGCUGUGGTT against Sec61b | inactive: -0.153
GCAAGGUGUAGAUUUUACATT against D0H4S114 | inactive: 0.419
GCUUGAUGGAAUCUUCUAGTT against 1700030K09Rik | inactive: 0.0701
CCAGGACCUUAUCAGGUUUTT against Idh2 | inactive: -0.58
GGGCAUGGACAAAAAGAAGTT against Prpf3 | inactive: 0.249
GGAAGCUUAAUUGUGCACATT against Zfp637 | inactive: -0.264
GCGAUUCUGUUGUUAGCUUTT against Rln1 | inactive: 0.621
GGUGUUAGCCUAGAAAAACTT against Fbxo43 | inactive: -0.797
GGAUUUCUGUGUGUCCACUTT against 9630020C08Rik | inactive: 1.51
GGAGUACAGCAUCUCAGCATT against Cacng1 | inactive: -1.44
CCAUGGGAUAUGAUUUACATT against Phf11 | inactive: -0.621
CCAUAAGGUAACCUGUACATT against Serpinb1c | inactive: -0.493
CCAUCUCAAACACCAAUCGTT against Timd4 | inactive: -1.42
GCUCAUGUUGCAUGUUAAGTT against Idh3g | inactive: 0.648
GGUCUUAAACAGUGUGACATT against AW049900 | inactive: -0.37
CGAGUAUCCCGUCAAGUUGTT against 6820408C15Rik | inactive: 0.935
CCCUUAGAGCUCUUAAAGATT against Mcart1 | inactive: 0.39
GGAAAGUGGUUUUGUCCACTT against Ing5 | inactive: 1.74
GACCUACCAGAUGAAGGUCTT against V1rc25 | inactive: 0.288
CCUCUCUUUAACAGGUCACTT against 1700034H15Rik | inactive: 0.382
GGGUCUAUCAGCUACAUCATT against Acsl6 | inactive: 2.35
CCACAGGGAUAGAUACUCCTT against Olfr566 | inactive: -0.184

In a second layout: entries from further up

| Sequence | z-score |
| --- | --- |
| GGUCUUAAACAGUGUGACATT against AW049900 | inactive: -0.37 |
| GGAAAGUGGUUUUGUCCACTT against Ing5 | inactive: 1.74 |
